The data set can be described thus: general procedure: peptide synthesis; Siber resin; NH2-Dpm(4,4′-OPhy) pseudo solid phase protecting group. Conditions: purification step.

Regarding “H-Tyr(tBu)-Ile-Gln(Trt)-Asn(Trt)-Cys(Mmt)-Pro-Leu-Gly-NH-Siber resin”, the step yield (vs cyclic peptide I′) was 87%.
For “Cl—CH2CO-Tyr(tBu)-Ile-Gln(Trt)-Asn(Trt)-Cys(Mmt)-Pro-Leu-Gly-NH-Siber resin”, the step yield (vs cyclic peptide H before filtration of insoluble material) is listed as 70%.

The record behind these values is patent US20220177512 (published 2022).
